# In PubChem BioAssay AID624297 (National Center for Advancing Translational Sciences (NCATS), 2012):
# Out of some 340,000 compounds screened, about 6,200 (1.8%) were called active. This list was built around the results that the source calls inconclusive (neither active nor inactive); the mix of calls is not that of the screen. Calls come from the whole dose curve; as a rule, active = well fitted activation curve with a large enough effect; inconclusive = small, poorly fitted or top-dose-only effect; inactive = no such curve, though single readings can be large or run the other way. Potencies of inconclusive entries are doubtful fits and often do not repeat.
# Assay: A quantitative high throughput screen for small molecules that induce DNA re-replication in SW480 colon adenocarcinoma cells. For re-replication activation: % of control where 0% means no effect. Note: nearly all actives have a fitted effect of over 55% in size.
# Conditions: Hoechst DNA content imaging, 48 h; re-replication activation: at 46.1 µM (top of the series) unless noted
# In short: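 250 cells/well; 23 nL cpd via pin tool; 48 hr, 37 C, 5% CO2; Hoechst 40 min; imager read of total nuclear intensity, ex 405/em 500-530 nm.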
# Potency is the fitted concentration of half-maximal effect.
Structure (SMILES),Potency,re-replication activation
Clc1ccc(C2=Nn3c(nnc3-c3n[nH]c4c3CCC4)SC2)cc1Cl,"inconclusive: 29.1 µM [activator, single point]",
O=C(Nc1ccccc1)NC1(C(=O)N2CCN(c3ncccn3)CC2)CCCCC1,,inactive: -2.38%
CCC(C)C(=O)OC1CCC=C2C=CC(C)C(CCC3CC(O)CC(=O)O3)[C@@H]21 (stereo partly drawn),"inconclusive: 2.66 µM [activator, full curve]",
CN1CCN(c2ccc(NC(=O)c3cccc(OCc4ccccc4)c3)cc2)CC1,"inconclusive: 18.4 µM [activator, partial curve, poor fit]",
Nc1nc(N(Cc2ccccc2)Cc2ccccc2)nc(C(F)(F)F)n1,"inconclusive: 3.66 µM [activator, partial curve, poor fit]",
COc1ccc(C2/C=C\CN(Cc3ccncc3)CC(=O)N2Cc2ccc(F)cc2)cc1 (stereo not drawn),"inconclusive: 1.3 µM [activator, full curve]",
Cc1c(C(=O)N/N=C/c2ccccc2)[nH]c2c([N+](=O)[O-])cccc12,"inconclusive: 9.2 µM [activator, partial curve, poor fit]",
Cc1cc(O)cc(=O)n1Cc1ccco1,"inconclusive: 29.1 µM [activator, partial curve, poor fit]",
Cc1ccc2[nH]c(CNC(=O)C3CCCCC3)cc2c1,"inconclusive: 23.1 µM [activator, single point]",
CCCNC(=O)Cn1c(=O)/c(=C/c2ccc(-c3ccc([N+](=O)[O-])cc3)o2)s/c1=C\C(=O)C(C)(C)C,active: 7.31 µM,
Cc1ccccc1S(=O)(=O)Cc1ccc(C(=O)N2CCN(c3cccc(C)c3C)CC2)o1,active: 4.11 µM,
COc1ccc(-c2csc(NCCc3nc4cc(Cl)c(Cl)cc4n3CCCO)n2)cc1,,inactive: -4.19%
COc1cccc(C(C)NC(=O)c2ccncc2)c1 (stereo not drawn),"inconclusive: 7.31 µM [activator, partial curve, poor fit]",
COc1ccc(-c2cc(C(F)F)n3ncc(C(=O)NCC4CCCO4)c3n2)cc1 (stereo not drawn),"inconclusive: 16.4 µM [activator, single point]",
C=C(C)COc1ccc2c(c1)CCC1C2CCC2(C)C(=O)C(=NO)CC12 (stereo not drawn),"inconclusive: 20.6 µM [activator, single point]",
COc1ccc(C2(SCC(N)C(=O)O)c3ccccc3-c3ccccc32)cc1 (stereo not drawn),,inactive: -0.482%
Cc1nc2c3ccccc3nc(NNC(=O)CCC(=O)N3CCN(c4ccc(F)cc4)CC3)n2n1,"inconclusive: 29.1 µM [activator, single point]",
c1ccc(CCn2nnnc2C(c2cccnc2)N2CCN(c3nc4ccccc4s3)CC2)cc1 (stereo not drawn),,inactive: -19.3%
CCOC(=O)c1c(C)n(-c2ccc(C)cc2)c2ccc(OCC(O)CNCCCO)cc12 (stereo not drawn),,inactive: 1.55%
CNC(=O)c1ccc(-c2sc3nc(N4CCOCC4)c4c(c3c2N)CCCC4)o1,active: 7.31 µM,
COc1cccc2c1C(=O)c1c(O)c3c(c(O)c1C2=O)CC(O)(C(C)=O)CC3OC1CC(O)C(O)C(C)O1 (stereo not drawn),"inconclusive: 0.651 µM [activator, full curve]",
O=C(CSc1nnc(-c2ccncc2)o1)Nc1cccc(F)c1,,inactive: -21.8%
COc1ccccc1[C@@]1(C)ON(c2ccccc2C(F)(F)F)C1=O,"inconclusive: 23.1 µM [activator, single point]",

Structure (SMILES),Potency,re-replication activation
Cc1cccc(-c2nnc(SCC(=O)N3c4ccccc4CCc4ccccc43)n2C)c1,,inactive: 6.65%
COc1cc(OC)cc(-c2c(C#Cc3ccsc3)c3cc(-c4ccc(CN5CCOCC5)cc4)ccc3n2C)c1,"inconclusive: 5.17 µM [activator, partial curve, poor fit]",
Cc1ccc(OCC(=O)Nc2ccc(N3CCN(C(=O)c4ccc(C)cc4)CC3)cc2)cc1,,inactive: -15.6%
Cc1ccccc1N(CC(=O)NC1CCCC1)C(=O)c1oc(C(C)(C)C)cc1C,"inconclusive: 9.2 µM [activator, partial curve]",
Cc1nn2c(N3CCCC3)c3c(nc2c1-c1ccccc1)CCC3,active: 18.4 µM,
COc1cc2nc(C3CCC3)n(NC(=O)c3ccco3)c(=O)c2cc1OC,,inactive: 11.9%
CC(=O)NC1C(OC(=O)/C=C/c2ccccc2)OC(COC(C)=O)C(OC(C)=O)C1OC(C)=O (stereo not drawn),"inconclusive: 3.26 µM [activator, single point]",
Cn1ncc(-c2ccno2)c1C(=O)O,"inconclusive: 0.146 µM [activator, full curve, poor fit]",
O=[N+]([O-])/C=C/c1cn(Cc2ccccc2)c2ccccc12,"inconclusive: 29.1 µM [activator, single point]",
CNC(=O)c1c(NC(=O)c2ccc(S(=O)(=O)N3CCCCC3)cc2)sc2c1CCN(C(C)C)C2,"inconclusive: 16.4 µM [activator, single point]",
Cc1cc(C(=O)CSc2nc(N)cc(N)n2)c(C)n1-c1cccc(F)c1,,inactive: -3.14%
CCN(CC)S(=O)(=O)c1c(OC)cc(C)c(Cl)c1C,active: 1.16 µM,
Cc1occc1C(=O)Nc1cc(S(=O)(=O)N2CCOCC2)ccc1OC(C)C,"inconclusive: 23.1 µM [activator, single point]",
COc1ccc(CNC(=O)C2(C)Cc3ccccc3C(=O)O2)cc1 (stereo not drawn),,inactive: -11.9%
O=C(Nc1cccc2ncccc12)c1cc([N+](=O)[O-])ccc1Cl,"inconclusive: 29.1 µM [activator, single point]",
CC1N/C(=C\C(=O)c2ccccc2)N(O)C1(C)C (stereo not drawn),,inactive: 12.6%
COc1ccc(CCNC(=O)/C=C/c2ccc(OC)c(S(=O)(=O)N3CCOCC3)c2)cc1,"inconclusive: 29.1 µM [activator, single point]",
O=C(CCSc1ccccc1)NCCSCc1ccccc1,,inactive: -6.35%
CC(C)c1ccccc1NC(=O)C1CCCN(C(=O)c2ccc(Cl)cc2)C1 (stereo not drawn),"inconclusive: 0.146 µM [activator, full curve, poor fit]",
Cc1ccccc1N1CCN(C2=NC(=O)/C(=C\c3cccs3)S2)CC1,"inconclusive: 29.1 µM [activator, single point]",
COCCNC(=O)COC(=O)c1ccc(OCC(=O)Nc2ccccc2OC)c(OC)c1,,inconclusive: 46.9% [activator]
CN(C)C=Nc1ncc2c3ccccc3n(CCN(C)C)c2c1C#N,"inconclusive: 23.1 µM [activator, single point]",
C=CC(=O)Nc1cccc(Nc2nc(N[C@H]3CC[C@H](N(C)C)CC3)nc3c2ncn3C(C)C)c1,"inconclusive: 1.46 µM [activator, partial curve, poor fit]",

# Looked up one by one from the list above:
Structure (SMILES),Potency,re-replication activation
COc1ccc(-c2csc(NCCc3nc4cc(Cl)c(Cl)cc4n3CCCO)n2)cc1,,inactive: -4.19%
CC(C)c1ccccc1NC(=O)C1CCCN(C(=O)c2ccc(Cl)cc2)C1 (stereo not drawn),"inconclusive: 0.146 µM [activator, full curve, poor fit]",

# Next part

Structure (SMILES),Potency,re-replication activation
Cc1ccc2nc(Cl)c(/C=N/Nc3nc(C)cc(C)n3)c(=O)n2c1,"inconclusive: 18.4 µM [activator, partial curve, poor fit]",
Cc1ccc(-c2csc(NC(=O)c3ccc(S(=O)(=O)N4CCc5ccccc54)cc3)n2)cc1,"inconclusive: 5.8 µM [activator, partial curve, poor fit]",
Cc1ccc(NC(=O)CN2c3cccc4cccc(c34)S2(=O)=O)cc1S(=O)(=O)N1CCOCC1,"inconclusive: 29.1 µM [activator, partial curve, poor fit]",
COCCNC(=S)NNC(=O)c1cc(C2CC2)nc2ccccc12,,inactive: -5%
Cn1c(SCc2nc3ccccc3[nH]2)nnc1-c1cccs1,,inactive: -4.52%
O=C(Nc1nc(-c2ccccn2)cs1)C1CC1,"inconclusive: 5.17 µM [activator, single point]",
CCC1=C2CC[C@H]3C(=O)N(C)C(=O)[C@H]3[C@H]2[C@@]2(Cc3ccccc3)C(=NCC(=O)OC)OC(=O)N2C1=O,"inconclusive: 0.0326 µM [activator, full curve]",
Clc1ccc(C2=CSC3=Nc4cccc5cccc(c45)N23)cc1,"inconclusive: 16.4 µM [activator, partial curve, poor fit]",
CC1CCN(Cc2nnnn2-c2ccc(Cl)cc2)CC1,,inactive: 1.82%
O=C(On1c(-c2ccccc2)nc2ccccc2c1=O)c1ccco1,"inconclusive: 32.6 µM [activator, single point]",
Cc1cc2c(C)cc(=O)[nH]c2cc1NC(=O)CCl,active: 20.6 µM,
CCc1c(C)nc2ncnn2c1NCCc1ccc(OC)c(OC)c1,,inactive: -1.88%
O=c1[nH]c2cc3c(cc2cc1C(c1nnnn1Cc1ccccc1)N1CCCc2ccccc21)OCO3 (stereo not drawn),,inactive: 16.6%
Cc1ccccc1NC(=O)Cn1nnc(S(=O)(=O)c2ccc(C(C)(C)C)cc2)c1N,"inconclusive: 29.1 µM [activator, partial curve, poor fit]",
O=[N+]([O-])c1ccc2c(c1Nc1ccccc1)=NC1(CCCCC1)N=2,"inconclusive: 0.184 µM [activator, partial curve, poor fit]",
CCCN1C(=O)S/C(=C\c2ccc(N3CCOCC3)o2)C1=O,active: 3.66 µM,
CCOC(=O)C1=CC[C@@H](c2ccccc2Cl)N(S(=O)(=O)c2ccc(C)cc2)[C@H]1C(=O)OCC,,inactive: -0.0863%
Nc1ccc(C(=O)N/N=C\c2cc(N=Nc3cccc4ccccc34)ccc2O)cc1,"inconclusive: 2.91 µM [activator, partial curve, poor fit]",
CC(C)(C)c1ccc(C(=O)OCCN2CCCCC2)cc1,,inactive: -15%
CCOc1ccccc1N1CCN(C(=O)c2cc3ccccc3cc2OC)CC1,active: 14.6 µM,
CCOC(=O)c1c(NS(=O)(=O)c2cccc(OC)c2)sc2c1CCC2,"inconclusive: 29.1 µM [activator, single point]",
CCOC(=O)c1sc2nc(C)cc(C)c2c1N,"inconclusive: 18.4 µM [activator, single point]",

# Given bar-delimited: entries from further up
Structure (SMILES) | Potency | re-replication activation
Clc1ccc(C2=CSC3=Nc4cccc5cccc(c45)N23)cc1 | inconclusive: 16.4 µM [activator, partial curve, poor fit] | 
CCOC(=O)C1=CC[C@@H](c2ccccc2Cl)N(S(=O)(=O)c2ccc(C)cc2)[C@H]1C(=O)OCC |  | inactive: -0.0863%
